Measurements published in US20030143729A1 (Synaptic Pharmaceutical Corporation, priority 1992, published 2003).

Tested on: endogenous taurine transporter in COS cells
Experiment: [3H]taurine uptake by non-transfected COS-7 cells (control)
Type: cell-based
Conditions: 50 nM [3H]taurine, 10 minutes, 37° C.

Question: Which results are given for `NCCCC(=O)O` [GABA, gamma-aminobutyric acid]?
Answer: % Inhibition of [3H]taurine uptake, control (inhibitor 10 μM): 1 ± 1 (4) %; % Inhibition of [3H]taurine uptake, control (inhibitor 100 μM): 9 ± 4 (6) %; % Inhibition of [3H]taurine uptake, control (inhibitor 1 mM): 49 ± 2 (5) %
